Measurements reported in PubChem BioAssay AID652243 (Drosophila RNAi Screening Center, 2013)
The deposit covers about 24,000 reagents; shown is a random part of those with a known target gene and a result. Over the whole deposit, 246 (1%) were called active. 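Plates not normalised; calls are printed but the firefly/Renilla ratio behind them is not deposited; fold cut for lowering reported inconsistently.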 Raw values are not corrected between plates. Reagents against one gene are numbered here. No sequences are given here. Not stated in the record: the amount of reagent.

Screen: 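Fly genes required for human androgen receptor driven transcription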 (primary screen)
Cells: Drosophila S2R+ cells
Knock-down reagent: long dsRNA against Drosophila genes
Timing: 72 h (48 h, then 24 h hormone)
Treatment: synthetic androgen R1881 at 10 nM for 24 h
Measured: 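Per-well raw luminescence of the androgen-driven firefly reporter and of the Renilla control, two replicates each, without normalisation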
Reading the numbers: firefly reporter light: higher = more light from androgen-responsive reporter; Renilla control light: higher = more constitutive control signal (cell number, transfection)
Rule for the call: 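Hit when the log firefly-to-Renilla ratio dropped or increased by a fixed fold versus the mean of GFP or LacZ controls across duplicate plates; lowering cut given as 1.5 and as 3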
Calls: active = hit: reporter lowered or raised; inactive = no hit

| Target gene | reagent | firefly reporter light, replicate 1 | firefly reporter light, replicate 2 | Renilla control light, replicate 1 | Renilla control light, replicate 2 | Call |
| --- | --- | --- | --- | --- | --- | --- |
| CG5151 (GeneID 39772) | 1 | 8.28e5 | 7.42e5 | 1.39e6 | 1.38e6 | inactive |
| CG5151 (GeneID 39772) | 2 | 7.64e5 | 5.27e5 | 7.98e5 | 9.07e5 | inactive |
| CG5151 (GeneID 39772) | 3 | 3.69e5 | 6.02e5 | 1.50e6 | 2.27e6 | inactive |
| 5-HT1A (GeneID 37196) | 1 | 68761 | 48711 | 9.06e5 | 1.04e6 | inactive |
| 5-HT1A (GeneID 37196) | 2 | 2.95e5 | 3.62e5 | 6.84e5 | 7.05e5 | inactive |
| CG1631 (GeneID 33029) | 1 | 1.54e5 | 90485 | 8.12e5 | 4.10e5 | inactive |
| Him (GeneID 32801) | 1 | 4.76e5 | 6.01e5 | 4.19e6 | 4.12e6 | inactive |
| Gpat4 (GeneID 37852) | 1 | 9.00e5 | 5.16e5 | 1.01e6 | 1.06e6 | inactive |
| CG31778 (GeneID 261616) | 1 | 8.00e5 | 6.46e5 | 2.43e6 | 2.16e6 | inactive |
| Rheb (GeneID 117332) | 1 | 60974 | 66973 | 3.03e5 | 2.58e5 | inactive |
| CG43072 (GeneID 12798436) | 1 | 2.40e5 | 3.68e5 | 2.26e6 | 2.82e6 | inactive |
| CG1640 (GeneID 32292) | 1 | 95487 | 1.26e5 | 7.62e5 | 8.22e5 | inactive |
| CG18808 (GeneID 59169) | 1 | 1.49e5 | 1.28e5 | 1.47e6 | 1.54e6 | inactive |
| Hsp60C (GeneID 33796) | 1 | 1.67e5 | 2.10e5 | 1.04e6 | 1.19e6 | inactive |
| Hsp60C (GeneID 33796) | 2 | 5.02e5 | 6.14e5 | 9.55e5 | 9.55e5 | inactive |
| per (GeneID 31251) | 1 | 3.16e5 | 3.70e5 | 3.36e6 | 3.26e6 | inactive |
| per (GeneID 31251) | 2 | 1.93e5 | 2.49e5 | 4.96e5 | 4.87e5 | inactive |
| Art6 (GeneID 41699) | 1 | 1.20e5 | 1.04e5 | 1.52e6 | 2.03e6 | inactive |
| Srg1 (GeneID 42969) | 1 | 1.78e5 | 2.23e5 | 2.14e6 | 2.00e6 | inactive |
| Srg1 (GeneID 42969) | 2 | 5.71e5 | 6.80e5 | 1.07e6 | 1.07e6 | inactive |
| CG34155 (GeneID 4379867) | 1 | 1.09e6 | 1.29e6 | 1.86e6 | 1.81e6 | inactive |
| Naa35 (GeneID 37866) | 1 | 5.99e5 | 7.27e5 | 1.14e6 | 1.27e6 | inactive |
| Naa35 (GeneID 37866) | 2 | 2.60e5 | 3.58e5 | 6.58e5 | 6.68e5 | inactive |
| Cyp40 (GeneID 39121) | 1 | 6.99e5 | 5.79e5 | 8.60e5 | 8.01e5 | inactive |
| Cyp40 (GeneID 39121) | 2 | 2.63e5 | 3.36e5 | 6.83e5 | 6.83e5 | inactive |
| OXA1L (GeneID 39222) | 1 | 1.01e6 | 7.90e5 | 1.13e6 | 1.21e6 | inactive |
| OXA1L (GeneID 39222) | 2 | 6.59e5 | 3.87e5 | 1.43e6 | 1.43e6 | inactive |
| CG34169 (GeneID 5740400) | 1 | 8.56e5 | 8.81e5 | 1.44e6 | 1.83e6 | inactive |
| CG10949 (GeneID 35310) | 1 | 7.96e5 | 7.00e5 | 2.65e6 | 3.44e6 | inactive |
| CG10949 (GeneID 35310) | 2 | 3.49e5 | 2.14e5 | 3.95e5 | 3.38e5 | inactive |
| CR16735 (GeneID 10178810) | 1 | 1.58e5 | 1.78e5 | 2.57e6 | 1.77e6 | inactive |
| grsm (GeneID 41587) | 1 | 1.59e5 | 1.97e5 | 2.47e6 | 2.83e6 | inactive |
| grsm (GeneID 41587) | 2 | 1.12e5 | 1.55e5 | 1.77e6 | 2.25e6 | inactive |
| CG34175 (GeneID 5740264) | 1 | 1.04e5 | 69038 | 1.07e6 | 7.98e5 | inactive |
| NT5E-2 (GeneID 246458) | 1 | 1.08e6 | 7.75e5 | 1.33e6 | 1.35e6 | inactive |
| PIG-T (GeneID 31772) | 1 | 2.04e5 | 2.71e5 | 3.99e6 | 4.16e6 | inactive |

Ordered by “Renilla control light, replicate 2” (highest first): 8 of the entries above
| Target gene | reagent | firefly reporter light, replicate 1 | firefly reporter light, replicate 2 | Renilla control light, replicate 1 | Renilla control light, replicate 2 | Call |
| --- | --- | --- | --- | --- | --- | --- |
| Art6 (GeneID 41699) | 1 | 1.20e5 | 1.04e5 | 1.52e6 | 2.03e6 | inactive |
| Srg1 (GeneID 42969) | 1 | 1.78e5 | 2.23e5 | 2.14e6 | 2.00e6 | inactive |
| CG34155 (GeneID 4379867) | 1 | 1.09e6 | 1.29e6 | 1.86e6 | 1.81e6 | inactive |
| Naa35 (GeneID 37866) | 1 | 5.99e5 | 7.27e5 | 1.14e6 | 1.27e6 | inactive |
| Srg1 (GeneID 42969) | 2 | 5.71e5 | 6.80e5 | 1.07e6 | 1.07e6 | inactive |
| Cyp40 (GeneID 39121) | 1 | 6.99e5 | 5.79e5 | 8.60e5 | 8.01e5 | inactive |
| Naa35 (GeneID 37866) | 2 | 2.60e5 | 3.58e5 | 6.58e5 | 6.68e5 | inactive |
| per (GeneID 31251) | 2 | 1.93e5 | 2.49e5 | 4.96e5 | 4.87e5 | inactive |

Continued:
| Target gene | reagent | firefly reporter light, replicate 1 | firefly reporter light, replicate 2 | Renilla control light, replicate 1 | Renilla control light, replicate 2 | Call |
| --- | --- | --- | --- | --- | --- | --- |
| CG8679 (GeneID 35395) | 1 | 90762 | 1.59e5 | 1.32e6 | 1.90e6 | inactive |
| RpS8 (GeneID 43532) | 1 | 1.01e5 | 97183 | 9.41e5 | 1.26e6 | inactive |
| CG11380 (GeneID 31065) | 1 | 5.93e5 | 6.34e5 | 1.50e6 | 1.68e6 | inactive |
| CG11380 (GeneID 31065) | 2 | 1.05e6 | 8.67e5 | 1.47e6 | 1.55e6 | inactive |
| Sap30 (GeneID 32664) | 1 | 4.47e5 | 3.61e5 | 3.09e6 | 2.05e6 | inactive |
| Syt14 (GeneID 40544) | 1 | 94705 | 86186 | 2.07e6 | 1.44e6 | inactive |
| CG33920 (GeneID 3771875) | 1 | 9.02e5 | 8.65e5 | 1.47e6 | 2.06e6 | inactive |
| sens (GeneID 45328) | 1 | 14244 | 18002 | 75249 | 89167 | inactive |
| sens (GeneID 45328) | 2 | 6.16e5 | 6.32e5 | 1.36e6 | 1.21e6 | inactive |
| Tep2 (GeneID 34044) | 1 | 2.11e5 | 1.89e5 | 1.53e6 | 1.23e6 | inactive |
| Tep2 (GeneID 34044) | 2 | 2.41e5 | 1.98e5 | 2.00e6 | 1.45e6 | inactive |
| dmGlut (GeneID 47253) | 1 | 6.58e5 | 9.68e5 | 1.36e6 | 1.94e6 | inactive |
| dmGlut (GeneID 47253) | 2 | 4.73e5 | 3.09e5 | 9.81e5 | 8.15e5 | inactive |
| Cpsf160 (GeneID 44250) | 1 | 1.18e6 | 1.28e6 | 1.90e6 | 2.19e6 | inactive |
| CG14742 (GeneID 12797890) | 1 | 2.63e5 | 2.40e5 | 2.46e6 | 2.19e6 | inactive |
| zetaCOP (GeneID 39862) | 1 | 2.35e5 | 2.04e5 | 1.80e6 | 1.84e6 | inactive |
| CG16868 (GeneID 37298) | 1 | 1.62e6 | 7.61e5 | 2.06e6 | 9.60e5 | inactive |
| CSN6 (GeneID 42661) | 1 | 2.04e5 | 1.78e5 | 1.99e6 | 1.61e6 | inactive |
| CG33958 (GeneID 37088) | 1 | 74479 | 70208 | 1.27e6 | 1.27e6 | inactive |
| CG33958 (GeneID 37088) | 2 | 1.08e5 | 1.11e5 | 1.61e6 | 1.61e6 | inactive |
| CG33958 (GeneID 37088) | 3 | 2.24e5 | 3.17e5 | 7.71e5 | 7.71e5 | inactive |
| mRpS21 (GeneID 318249) | 1 | 1.63e5 | 1.87e5 | 3.70e5 | 3.91e5 | inactive |
| mRpS21 (GeneID 318249) | 2 | 8.59e5 | 7.71e5 | 2.27e6 | 1.77e6 | inactive |
| mRpS21 (GeneID 318249) | 3 | 4.98e5 | 4.66e5 | 9.93e5 | 1.30e6 | inactive |
